Values from PubChem BioAssay AID1259405 (NCATS, 2018).

Aim: 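Knock-downs that lift recombinant protein yield in hamster ovary cells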 (primary screen)
System: Chinese hamster CHO-K1 ovary cells with stable secreted eGFP expression
Reagent: single siRNA against mouse genes, 0.8 pmol siRNA per well (2 µl of 400 nM stock)
Timing: 3 days
Read-out: 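Per-well intracellular GFP measured by laser scanning cytometry, plus viability from ATP luminescence, each relative to plate median of non-targeting control wells, in %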
Direction: GFP, % of control: higher = more GFP per well, higher productivity; viability (ATP), % of control: higher = more viable cells (more ATP)
Rule for the call: 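Called active when intracellular GFP, relative to negative control, is at or above 120%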
In all, the deposit lists about 50,000 reagents; this is a random part of them. About 4,000 of them (8%) count as active. 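Mouse siRNA library applied to hamster cells; one well for each siRNA.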 Unmarked entries are inactive. Reagents against one gene are numbered here.

Sh3bp1 (GeneID 20401) #1 | GFP, % of control: 92.9; viability (ATP), % of control: 80.1
Sh3bp1 (GeneID 20401) #2 | GFP, % of control: 101; viability (ATP), % of control: 82
Sh3bp1 (GeneID 20401) #3 | GFP, % of control: 44; viability (ATP), % of control: 40.2
Grm8 (GeneID 14823) #1 | GFP, % of control: 79.2; viability (ATP), % of control: 88.7
Grm8 (GeneID 14823) #2 | GFP, % of control: 71.8; viability (ATP), % of control: 71.3
Grm8 (GeneID 14823) #3 | GFP, % of control: 62.6; viability (ATP), % of control: 65.6
Itpk1 (GeneID 217837) #1 | GFP, % of control: 65; viability (ATP), % of control: 54.5
Itpk1 (GeneID 217837) #2 | GFP, % of control: 80; viability (ATP), % of control: 59.1
Evi5 (GeneID 14020) #1 | GFP, % of control: 48.9; viability (ATP), % of control: 70.4
Evi5 (GeneID 14020) #2 | GFP, % of control: 68.2; viability (ATP), % of control: 76.8
Evi5 (GeneID 14020) #3 | GFP, % of control: 48.3; viability (ATP), % of control: 55.7
Pcdha2 (GeneID 353234) #1 | GFP, % of control: 50.8; viability (ATP), % of control: 68.2
Pcdha2 (GeneID 353234) #2 | GFP, % of control: 57; viability (ATP), % of control: 40.7
Pcdha2 (GeneID 353234) #3 | GFP, % of control: 89.5; viability (ATP), % of control: 81.6
Nucks1 (GeneID 98415) #1 | GFP, % of control: 86.1; viability (ATP), % of control: 67.4
Nucks1 (GeneID 98415) #2 | GFP, % of control: 0; viability (ATP), % of control: 182
Nucks1 (GeneID 98415) #3 | GFP, % of control: 128 (active); viability (ATP), % of control: 127
Spink12 (GeneID 78242) #1 | GFP, % of control: 72.9; viability (ATP), % of control: 61.1
Spink12 (GeneID 78242) #2 | GFP, % of control: 91.2; viability (ATP), % of control: 70.1
Spink12 (GeneID 78242) #3 | GFP, % of control: 126 (active); viability (ATP), % of control: 91.2
Fam221a (GeneID 231946) #1 | GFP, % of control: 60.3; viability (ATP), % of control: 82.3
Fam221a (GeneID 231946) #2 | GFP, % of control: 87.7; viability (ATP), % of control: 78.9
Fam221a (GeneID 231946) #3 | GFP, % of control: 79.3; viability (ATP), % of control: 86.2
Speer4d (GeneID 360220) #1 | GFP, % of control: 102; viability (ATP), % of control: 39.6
Speer4d (GeneID 360220) #2 | GFP, % of control: 81.3; viability (ATP), % of control: 108
Speer4d (GeneID 360220) #3 | GFP, % of control: 141 (active); viability (ATP), % of control: 123
Dnali1 (GeneID 75563) #1 | GFP, % of control: 68.2; viability (ATP), % of control: 110
Dnali1 (GeneID 75563) #2 | GFP, % of control: 136 (active); viability (ATP), % of control: 100
Fh1 (GeneID 14194) #1 | GFP, % of control: 40.3; viability (ATP), % of control: 61.2
Fh1 (GeneID 14194) #2 | GFP, % of control: 65.6; viability (ATP), % of control: 90.5
Fh1 (GeneID 14194) #3 | GFP, % of control: 84.4; viability (ATP), % of control: 92
4930578I06Rik (GeneID 67750) #1 | GFP, % of control: 80.4; viability (ATP), % of control: 76.8
4930578I06Rik (GeneID 67750) #2 | GFP, % of control: 77.2; viability (ATP), % of control: 51.9
4930578I06Rik (GeneID 67750) #3 | GFP, % of control: 56.6; viability (ATP), % of control: 54.5
Plekhg5 (GeneID 269608) #1 | GFP, % of control: 71.9; viability (ATP), % of control: 57.7
Plekhg5 (GeneID 269608) #2 | GFP, % of control: 89.8; viability (ATP), % of control: 81.7
Plekhg5 (GeneID 269608) #3 | GFP, % of control: 95.8; viability (ATP), % of control: 72.1
Or5al1 (GeneID 257941) #1 | GFP, % of control: 81.9; viability (ATP), % of control: 68
Or5al1 (GeneID 257941) #2 | GFP, % of control: 71.7; viability (ATP), % of control: 41
Or5al1 (GeneID 257941) #3 | GFP, % of control: 66.7; viability (ATP), % of control: 64.8

Sorted by “viability (ATP), % of control” (lowest first): some entries from above.
Speer4d (GeneID 360220) #1 | GFP, % of control: 102; viability (ATP), % of control: 39.6
Fam221a (GeneID 231946) #3 | GFP, % of control: 79.3; viability (ATP), % of control: 86.2
Speer4d (GeneID 360220) #2 | GFP, % of control: 81.3; viability (ATP), % of control: 108
Dnali1 (GeneID 75563) #1 | GFP, % of control: 68.2; viability (ATP), % of control: 110
Speer4d (GeneID 360220) #3 | GFP, % of control: 141 (active); viability (ATP), % of control: 123
